# Laboratory results published in publication PMC6273140, “Anti-Inflammatory Chemical Profiling of the Australian Rainforest Tree Alphitonia petriei (Rhamnaceae)” (Molecules, 2016).
# Test system: NO production in LPS + IFN-γ activated RAW 264.7 macrophages
# Experiment: Inhibition of LPS + IFN-γ induced nitric oxide production (Griess assay)
# Format: cell-based
# Settings: cytotoxicity LC50 compared to NO IC50, RAW 264.7
# Protocol: RAW 264.7 macrophages were grown in 175 cm^2 flasks on DMEM containing 5% foetal bovine serum (FBS) that was supplemented with penicillin (100 μg/mL), streptomycin (100 μg/mL) and L-glutamine (2 mM). The cell line was maintained in 5% CO2 at 37 °C, with media being replaced every 3–4 days. Once cells had grown to confluence in the culture flask, they were removed using a rubber policeman, as opposed to using trypsin, which can remove membrane-bound receptors. The cell suspension was concentrated by centrifugation for 3 min at 900 rpm and re-suspended in a small volume of fresh DMEM (with 1% antibiotics and 5% FBS); cell densities were estimated using a Neubauer counting chamber. The cell concentration was adjusted with DMEM (with 1% antibiotics and 5% FBS) to obtain 60,000 cells/100 μL cell suspension. An aliquot of 100 μL of this cell suspension was dispensed into the wells of 96-well plates. Plates were incubated at 37 °C, 5% CO2 for 18 h before the activation experiments were carried out.
# For assays, 90 μL of each concentration of compounds (8 concentrations made by serial dilution from 0 µg/mL to 36 µg/mL compound in DMEM) were added an hour prior to addition of 10 µL of activator. A combination of 10 μg·mL^−1 LPS and 10 U·mL^−1 (1 unit = 0.1 ng/mL) IFN-γ, were used for activation. After activation, the cells were incubated for 24 h at 37 °C and then NO, TNF-α and cell viability was determined. Unactivated cells (exposed to media alone) were used as negative control and activated cells as positive control.
# Nitric oxide was determined by Griess reagent quantification of nitrite. Griess reagent was freshly made up of equal volumes of 1% sulfanilamide and 0.1% napthyethylene-diamine in 5% HCl. From each well, 50 µL of supernatant was transferred to a fresh 96-well plate and mixed with 50 µL of Griess reagent and measured at 540 nm in a POLARstar Omega microplate reader (BMG Labtech, Mornington, Australia). The concentration of nitrite was calculated using a standard curve with […] (0–500 μM), and linear regression analysis.
# Data calculations were performed using MS-Excel 2010 software. IC50 values were obtained by using the sigmoidal dose–response function in GraphPad Prism. The results were expressed as mean ± standard deviation (SD).
row,SMILES,Therapeutic Index (TI) (Compared to NO)
1,"C=C(C)[C@@H]1CC[C@]2(C(=O)O)CC[C@]3(C)[C@H](CC[C@@H]4[C@@]5(C)C[C@@H](OC(=O)/C=C\c6ccc(O)cc6)[C@H](O)C(C)(C)[C@@H]5CC[C@]43C)[C@@H]12 [Compound 4, cis-coumaroyl alphitolic acid]",2.3
2,"C=C(C)[C@@H]1CC[C@]2(C(=O)O)CC[C@]3(C)[C@H](CC[C@@H]4[C@@]5(C)[C@@H](C(=O)O)[C@H](OC(C)=O)C(C)(C)[C@@H]5CC[C@]43C)C12 (some centres unmarked) [Compound 6, emmolic acid acetate]",0.9
3,"C=C(C)[C@@H]1CC[C@]2(C(=O)O)CC[C@]3(C)[C@H](CC[C@@H]4[C@@]5(C)C[C@@H](OC(=O)/C=C/c6ccc(O)cc6)[C@H](O)C(C)(C)[C@@H]5CC[C@]43C)[C@@H]12 [Compound 3, trans-coumaroyl alphitolic acid]",2.8
4,"C=C(C)[C@@H]1CC[C@]2(C(=O)O)CC[C@]3(C)[C@H](CC[C@@H]4[C@@]5(C)CC[C@H](O)C(C)(C)[C@@H]5CC[C@]43C)[C@@H]12 [Compound 5, betulinic acid]",3.5
5,"C=C(C)[C@@H]1CC[C@]2(C(=O)O)CC[C@]3(C)[C@H](CC[C@@H]4[C@@]5(C)C[C@@H](O)[C@H](O)C(C)(C)[C@@H]5CC[C@]43C)[C@@H]12 [Compound 2, alphitolic acid]",1
